In patent publication US20010033847A1, “DERMATOLOGIC PREPARATION” (priority 1996, published 2001):

Experiments:
volar cubital region [1] = assay: feeling on use: moist feeling 3 minutes after application; format: in vivo, human; settings: number of subjects
Protocol: Feeling on use of the dermatologic preparation related to this invention was evaluated. To 900 μl of the mixture of glycerol, ethanol, and water in the ratio of 1:2:2 (by volume), was added 100 μl of the above-mentioned oil, and the resultant mixture was applied and spread onto the volar cubital region. The moist feeling after 3 minutes was evaluated.

volar cubital region [2] = assay: intensity of unpleasant odor at the applied region 1 hour after application; format: in vivo, human; settings: number of subjects
Protocol: To 900 μl of the mixture of glycerol, ethanol, and water in the ratio of 1:2:2 (by volume), was added 100 μl of the above-mentioned oil, and the resultant mixture was applied and spread onto the volar cubital region. The moist feeling after 3 minutes was evaluated. Also the intensity of unpleasant odor at the region was evaluated 1 hour after application.

1,3-dioctanoyl-2-eicosapentaenoyl glycerol [Example 2]
Moist feeling: dry (volar cubital region [1]): 0 subjects | Moist feeling: moist (volar cubital region [1]): 5 subjects | Moist feeling: oily (volar cubital region [1]): 0 subjects | Moist feeling: tacky (volar cubital region [1]): 0 subjects | Unpleasant odor: none (volar cubital region [2]): 5 | Unpleasant odor: slight (volar cubital region [2]): 0 | Unpleasant odor: strong (volar cubital region [2]): 0 | Unpleasant odor: weak (volar cubital region [2]): 0
